Values of other authors in article PMC6052858 (Die Pharmazie, 2009).
Like-named read-outs stand apart in the source and are kept apart here.

Conditions: cited from earlier work; for Cmax: ref Dresser et al. (2002)
[1] = administered along with GFJ, ref Dresser et al. 2002

**Q.** Which “AUC with GFJ, % of control (decreased to)” value [1] does the source give for `CC(C)(C(=O)O)c1ccc(C(O)CCCN2CCC(C(O)(c3ccccc3)c3ccccc3)CC2)cc1` (stereo not shown) [fexofenadine] here?
**A.** Its value is 30%.

**Q.** What about the “Cmax with GFJ, % of control (decreased to)” value [1] of the same compound?
**A.** The value was 40%.

**Q.** And the Cmax (with GFJ)?
**A.** Its Cmax is 110 µg/mL.

**Q.** What about the Cmax (without GFJ) of the same compound?
**A.** The Cmax was 288 µg/mL.
